One molecule from publication PMC6422423, “Constitutively active BRS3 is a genuinely orphan GPCR in placental mammals” (PLoS Biology, 2019) can be followed below.

No constants are given. Whether binding was seen depends on the method and setting. For part of these data: A result given as binding can be weak or reduced; the word gives no strength.

For assay [1], the target named is aardvark bombesin receptor subtype-3 (aardvark (Orycteropus afer)). Nature of the assay: radioligand binding; displacement of 50 pM [125I]-Tyr42-GRP by unlabeled peptide on disaggregated transfected HEK293 cells; 1 h at 21°C; 24.5 mM HEPES pH 7.4, 98 mM NaCl; bound tracer separated by centrifugation; only the binder purified.
In assay [2] the target is gastrin-releasing peptide receptor. The description is as above.
Assay [3] deals with neuromedin B receptor. Nature of the assay: radioligand binding; displacement of 50 pM [125I]-Tyr-NMB by unlabeled peptide on disaggregated transfected HEK293 cells; 1 h at 21°C; 24.5 mM HEPES pH 7.4, 98 mM NaCl; bound tracer separated by centrifugation; only the binder purified.

B1: gastrin-releasing peptide, unlabeled ligand peptide of the radioligand binding assays (peptide)
peptide: APLQPGGSPALTKIYPRGSHWAVGHLM
B1: the binding result is “no binding (tested: Ki > 1,000 nM)” in assay [1], “binds” in assay [2] and “no binding” in assay [3].
